Results reported in PubChem BioAssay AID212 (DTP/NCI, 2004).
The list does not hold the whole screen: it is rich in T/C values a quarter to a half above the control, in often repeated tests (any T/C) and in doses without a T/C. Further doses and runs are listed elsewhere. T/C: endpoint of the treated group in % of that of the vehicle group. Schedules are NCI's codes, read here as Q, the interval in days (D) or hours (H), X, the number of doses. Some T/C values carry the count of animals alive at the toxicity check (mostly the fifth day); where none is given, no animal had died by that day. Some entries hold several experiments; the values are given in rising order. Counts like (3×) give the number of equal values in this list. Some entries give survivors of the animals treated and no T/C: the source files T/C as zero there, which appears to mark a toxic dose or a test without result, not a measured value. Counts of survivors are from the toxicity check (mostly the fifth day) where no day follows; animals may have died later.

Tested on: BDF1 mice, colon carcinoma 38 sc, T/C %
Test: NCI In Vivo Anticancer Drug Screen. Data for tumor model Colon Carcinoma 38 (subcutaneous) in B6D2F1 (BDF1) mice
Conditions: for T/C: evaluated on day 20
In short: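 Ratio of survival or tumor size, compound-treated animals relative to vehicle controls, in tumor-bearing mice.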

[1] = T/C endpoint: median tumor weight (est.), dose: 25.0 mg/kg/injection, schedule: Q07DX002 (ip), vehicle: saline with Tween-80, higher T/C = larger tumour
[2] = T/C endpoint: median tumor weight (est.), dose: 100.0 mg/kg/injection, schedule: Q07DX002 (ip), vehicle: saline with Tween-80, higher T/C = larger tumour
[3] = T/C endpoint: median tumor weight (est.), dose: 200.0 mg/kg/injection, schedule: Q07DX002 (ip), vehicle: saline with Tween-80, higher T/C = larger tumour
[4] = T/C endpoint: median tumor weight (est.), dose: 400.0 mg/kg/injection, schedule: Q07DX002 (ip), vehicle: saline with Tween-80, higher T/C = larger tumour
[5] = T/C endpoint: median tumor weight (est.), dose: 200.0 mg/kg/injection, schedule: Q07DX002 (ip), vehicle: Klucel (hydroxypropylcellulose) (HPC), higher T/C = larger tumour
[6] = T/C endpoint: median tumor weight (est.), dose: 6.25 mg/kg/injection, schedule: Q07DX002 (ip), vehicle: distilled water + Tween-80, higher T/C = larger tumour

CC1=C(/C=C/C(C)=C/C=C/C(C)=C/C(=O)O)C(C)(C)CCC1
T/C (T/C endpoint: median tumor weight (est.), dose: 16.0 mg/kg/injection, schedule: Q07DX003 (ip), vehicle: saline with Tween-80, higher T/C = larger tumour): 127 % of control | T/C (T/C endpoint: median tumor weight (est.), dose: 50.0 mg/kg/injection, schedule: Q07DX003 (ip), vehicle: saline with Tween-80, higher T/C = larger tumour): 147 % of control | T/C (T/C endpoint: median tumor weight (est.), dose: 100.0 mg/kg/injection, schedule: Q07DX003 (ip), vehicle: saline with Tween-80, higher T/C = larger tumour): 148 % of control | T/C (T/C endpoint: median tumor weight (est.), dose: 128.0 mg/kg/injection, schedule: Q07DX003 (ip), vehicle: saline with Tween-80, higher T/C = larger tumour): 140 % of control

CCOc1cc2c(cc1C(C)c1ccc(OC)cc1)OCO2 (stereo not drawn)
T/C (T/C endpoint: median tumor weight (est.), dose: 200.0 mg/kg/injection, schedule: Q07DX002 (ip), vehicle: distilled water + Tween-80 + alcohol, higher T/C = larger tumour): 127 % of control | survivor count (T/C endpoint: median tumor weight (est.), dose: 800.0 mg/kg/injection, schedule: Q07DX002 (ip), vehicle: distilled water + Tween-80 + alcohol, higher T/C = larger tumour): 1 of 10 on day 20

CN(C)c1nc(N(C)C)nc(N(C)C)n1
T/C (T/C endpoint: median tumor weight (est.), dose: 20.0 mg/kg/injection, schedule: Q07DX002 (ip), vehicle: saline with Tween-80, higher T/C = larger tumour): 125, 127, 145, 151 % of control | T/C (T/C endpoint: median tumor weight (est.), dose: 20.0 mg/kg/injection, schedule: Q07DX003 (ip), vehicle: saline with Tween-80, higher T/C = larger tumour): 55, 81, 83, 113, 114 % of control | T/C [1]: 131 % of control | T/C (T/C endpoint: median tumor weight (est.), dose: 40.0 mg/kg/injection, schedule: Q07DX002 (ip), vehicle: saline with Tween-80, higher T/C = larger tumour): 118, 125, 129, 156 % of control | T/C (T/C endpoint: median tumor weight (est.), dose: 40.0 mg/kg/injection, schedule: Q07DX003 (ip), vehicle: saline with Tween-80, higher T/C = larger tumour): 64, 77, 92 [8 of 10 alive], 96, 113 % of control | T/C (T/C endpoint: median tumor weight (est.), dose: 50.0 mg/kg/injection, schedule: Q07DX002 (ip), vehicle: saline with Tween-80, higher T/C = larger tumour): 75, 84 [8 of 10 alive on day 20], 86, 92, 94, 96, 99, 110, 125 [9 of 10 alive on day 20], 127, 154 % of control [8 of 10 alive on day 20] | T/C (T/C endpoint: median tumor weight (est.), dose: 80.0 mg/kg/injection, schedule: Q07DX002 (ip), vehicle: saline with Tween-80, higher T/C = larger tumour): 70, 89, 142, 193 % of control | T/C (T/C endpoint: median tumor weight (est.), dose: 80.0 mg/kg/injection, schedule: Q07DX003 (ip), vehicle: saline with Tween-80, higher T/C = larger tumour): 72 [9 of 10 alive], 75, 88 [9 of 10 alive], 91, 115 % of control | T/C [2]: 61, 76, 86, 89, 96, 97, 104, 106, 106 [9 of 10 alive on day 20], 110, 116 % of control | T/C (T/C endpoint: median tumor weight (est.), dose: 160.0 mg/kg/injection, schedule: Q07DX002 (ip), vehicle: saline with Tween-80, higher T/C = larger tumour): 54, 59 [8 of 10 alive], 77, 125 % of control | T/C (T/C endpoint: median tumor weight (est.), dose: 160.0 mg/kg/injection, schedule: Q07DX003 (ip), vehicle: saline with Tween-80, higher T/C = larger tumour): 50, 51, 63, 66 [8 of 10 alive], 79 % of control | T/C [3]: 22, 52, 60 [7 of 10 alive on day 20], 64 [9 of 10 alive on day 20], 72, 83 (2×), 95 [8 of 10 alive on day 20], 99, 108, 129 % of control | survivor count (T/C endpoint: median tumor weight (est.), dose: 320.0 mg/kg/injection, schedule: Q07DX002 (ip), vehicle: saline with Tween-80, higher T/C = larger tumour): 6 of 10 | T/C (T/C endpoint: median tumor weight (est.), dose: 320.0 mg/kg/injection, schedule: Q07DX003 (ip), vehicle: saline with Tween-80, higher T/C = larger tumour): 4 [9 of 10 alive], 8 [7 of 10 alive], 54 [9 of 10 alive], 63 [9 of 10 alive], 92 % of control [8 of 10 alive] | T/C [4]: 30 [7 of 10 alive on day 20], 35 [8 of 10 alive on day 20], 40 [9 of 10 alive on day 20], 52 [7 of 10 alive on day 20], 74 [7 of 10 alive on day 20], 78 [7 of 10 alive on day 20], 93 [8 of 10 alive on day 20], 102, 156 % of control [8 of 10 alive on day 20] | survivor count [4]: 4 of 10 on day 20 and 5 of 10 on day 20

C[CH2][Ge]1([CH2]C)[CH2]CC2(CCN(CCCN(C)C)C2)C[CH2]1
T/C (T/C endpoint: median tumor weight (est.), dose: 12.5 mg/kg/injection, schedule: Q07DX002 (ip), vehicle: saline, higher T/C = larger tumour): 128 % of control | survivor count (T/C endpoint: median tumor weight (est.), dose: 100.0 mg/kg/injection, schedule: Q07DX002 (ip), vehicle: saline, higher T/C = larger tumour): 5 of 10

CCN(CC)c1ccc2cc(-c3nc4ccccc4n3C)c(=O)oc2c1
survivor count [5]: 0 of 10 on day 20 | survivor count (T/C endpoint: median tumor weight (est.), dose: 400.0 mg/kg/injection, schedule: Q07DX002 (ip), vehicle: Klucel (hydroxypropylcellulose) (HPC), higher T/C = larger tumour): 1 of 10 on day 20

N#CC(OC1OC(COC2OC(CO)C(O)C(O)C2O)C(O)C(O)C1O)c1ccccc1 (stereo not drawn)
T/C (T/C endpoint: median tumor weight (est.), dose: 800.0 mg/kg/injection, schedule: Q07DX002 (ip), vehicle: water, higher T/C = larger tumour): 134 % of control

NC(Cc1ccc(N(CCCl)Cc2ccccc2)cc1)C(=O)O (stereo not drawn)
T/C [6]: 135 % of control

O=C1NC(=O)NC(C(=O)O)N1
survivor count (T/C endpoint: median tumor weight (est.), dose: 1800.0 mg/kg/injection, schedule: Q01DX001 (ip), vehicle: DMSO, higher T/C = larger tumour): 5 of 10 on day 20

CC1=C/C(O)CC(=O)Cc2nc(co2)C(=O)N2CCC=C2C(=O)OC(C(C)C)C(C)/C=C\C(=O)NC/C=C\1 (stereo not drawn)
T/C (T/C endpoint: median tumor weight (est.), dose: 100.0 mg/kg/injection, schedule: Q07DX002 (ip), vehicle: Klucel (hydroxypropylcellulose) (HPC), higher T/C = larger tumour): 127 % of control | T/C [5]: 128 % of control [9 of 10 alive on day 20]

O=C(Nc1ccc(C2=NCCN2)cc1)c1ccc(C(=O)Nc2ccc(C3=NCCN3)cc2)c(Cl)c1
T/C (T/C endpoint: median tumor weight (est.), dose: 3.12 mg/kg/injection, schedule: Q07DX002 (ip), vehicle: saline with Tween-80, higher T/C = larger tumour): 126 % of control | T/C [1]: 129 % of control | survivor count [2]: 1 of 10 on day 20

O=Cc1ccc(C=O)c(Cl)c1
survivor count (T/C endpoint: median tumor weight (est.), dose: 800.0 mg/kg/injection, schedule: Q07DX002 (ip), vehicle: Klucel (hydroxypropylcellulose) (HPC), higher T/C = larger tumour): 6 of 10 on day 20

CC(C)NC(=O)OCc1c(COC(=O)NC(C)C)c(-c2ccc(Cl)c(Cl)c2)n2c1CCC2
survivor count (T/C endpoint: median survival time, dose: 95.0 mg/kg/injection, schedule: Q01DX005 (ip), vehicle: other, higher T/C = longer survival): 4 of 10 on day 59 | survivor count (T/C endpoint: median survival time, dose: 154.0 mg/kg/injection, schedule: Q01DX005 (ip), vehicle: other, higher T/C = longer survival): 0 of 10 on day 59 | survivor count (T/C endpoint: median survival time, dose: 248.0 mg/kg/injection, schedule: Q01DX005 (ip), vehicle: other, higher T/C = longer survival): 0 of 10 on day 59 | survivor count (T/C endpoint: median survival time, dose: 400.0 mg/kg/injection, schedule: Q01DX005 (ip), vehicle: other, higher T/C = longer survival): 0 of 10 on day 59 | T/C [6]: 138 % of control [9 of 10 alive] | T/C (T/C endpoint: median tumor weight (est.), dose: 12.5 mg/kg/injection, schedule: Q07DX002 (ip), vehicle: distilled water + Tween-80, higher T/C = larger tumour): 129 % of control | T/C (T/C endpoint: median tumor weight (est.), dose: 50.0 mg/kg/injection, schedule: Q07DX002 (ip), vehicle: distilled water + Tween-80, higher T/C = larger tumour): 131 % of control [9 of 10 alive] | survivor count (T/C endpoint: median tumor weight (est.), dose: 400.0 mg/kg/injection, schedule: Q07DX002 (ip), vehicle: distilled water + Tween-80, higher T/C = larger tumour): 0 of 10 on day 20

COC1=C(OC)C(=O)C(Sc2ccc3ccccc3c2)=CC1=O
survivor count [3]: 3 of 10 on day 20 | survivor count [4]: 0 of 10 on day 20

COc1cccc2c1C(=O)c1c(O)c3c(c(O)c1C2=O)CC(O)(C(=O)CO)CC3OC1CC(N)C(O)C(C)O1 (stereo not drawn)
survivor count (T/C endpoint: median survival time, dose: 250.0 mg/kg/injection, schedule: Q07DX002 (iv), vehicle: saline, higher T/C = longer survival): 0 of 10 on day 92 | T/C (T/C endpoint: median tumor weight (est.), dose: 50.0 mg/kg/injection, schedule: Q07DX002 (ip), vehicle: water, higher T/C = larger tumour): 127 % of control | survivor count (T/C endpoint: median tumor weight (est.), dose: 162.0 mg/kg/injection, schedule: Q07DX002 (ip), vehicle: water, higher T/C = larger tumour): 4 of 10 on day 20 | survivor count (T/C endpoint: median tumor weight (est.), dose: 200.0 mg/kg/injection, schedule: Q07DX002 (ip), vehicle: saline, higher T/C = larger tumour): 3 of 10 on day 20 | survivor count (T/C endpoint: median tumor weight (est.), dose: 324.0 mg/kg/injection, schedule: Q07DX002 (ip), vehicle: water, higher T/C = larger tumour): 0 of 10 on day 20 | survivor count (T/C endpoint: median tumor weight (est.), dose: 400.0 mg/kg/injection, schedule: Q07DX002 (ip), vehicle: saline, higher T/C = larger tumour): 0 of 10 on day 20 | survivor count (T/C endpoint: median tumor weight (est.), dose: 648.0 mg/kg/injection, schedule: Q07DX002 (ip), vehicle: saline, higher T/C = larger tumour): 0 of 10 on day 20 | survivor count (T/C endpoint: median tumor weight (est.), dose: 648.0 mg/kg/injection, schedule: Q07DX002 (ip), vehicle: water, higher T/C = larger tumour): 0 of 10 on day 20
